# Laboratory results: the supplement of paper PMC3334620
# The full ranking holds about 33,000 sequences; the median of “E-score (-0.5 to 0.5)” is about -0.016, and the highest 2% start at about 0.3. Some of the results follow.
# Molecular target: T1, Yer184c (UniProt P39961)
# T1 sequence: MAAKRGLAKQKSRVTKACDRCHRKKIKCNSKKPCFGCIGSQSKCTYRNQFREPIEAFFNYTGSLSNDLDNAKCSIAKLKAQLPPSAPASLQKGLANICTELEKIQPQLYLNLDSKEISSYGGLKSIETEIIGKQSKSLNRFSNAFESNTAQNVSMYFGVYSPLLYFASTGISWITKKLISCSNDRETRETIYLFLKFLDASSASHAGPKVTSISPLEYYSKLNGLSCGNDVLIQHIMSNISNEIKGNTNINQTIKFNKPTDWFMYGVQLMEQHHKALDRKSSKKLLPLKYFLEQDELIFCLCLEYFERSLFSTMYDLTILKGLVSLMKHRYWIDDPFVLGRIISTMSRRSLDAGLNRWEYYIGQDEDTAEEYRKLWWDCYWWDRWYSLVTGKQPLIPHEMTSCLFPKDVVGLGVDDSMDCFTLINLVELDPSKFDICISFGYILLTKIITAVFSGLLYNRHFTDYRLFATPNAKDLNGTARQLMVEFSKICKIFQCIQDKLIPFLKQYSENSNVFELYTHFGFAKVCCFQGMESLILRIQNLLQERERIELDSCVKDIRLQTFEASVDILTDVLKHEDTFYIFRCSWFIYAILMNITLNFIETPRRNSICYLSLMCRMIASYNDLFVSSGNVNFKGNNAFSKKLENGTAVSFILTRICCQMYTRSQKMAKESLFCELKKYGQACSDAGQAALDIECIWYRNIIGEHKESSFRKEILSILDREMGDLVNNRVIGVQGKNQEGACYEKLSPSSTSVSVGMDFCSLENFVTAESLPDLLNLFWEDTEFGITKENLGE
# Assay: PBM E-score (8-mer binding enrichment) (E-score (-0.5 to 0.5)); higher = stronger / more preferred TF binding
# Conditions: protein concentration: 100 nM; construct: GST-full length
# Outline: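 GST-tagged yeast TFs (full-length or DNA-binding domain) were made by PURExpress in vitro transcription/translation and applied at about 100-200 nM to universal all-10-mer Agilent arrays. The arrays were made double-stranded by primer extension, on fresh or once-stripped slides. Bound protein was detected with fluorescent anti-GST, and scans were normalised with masliner. Each ungapped eight-base word, pooled with its reverse complement, received an E-score (modified Wilcoxon-Mann-Whitney statistic) from the Universal PBM Analysis Suite.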
row,Sequence,PBM E-score
1,CTCCCGCA,0.109
2,ACCCACCC,-0.137
3,TGAAAACA,0.206
4,AGAAAGCA,0.139
5,AACACAAG,-0.125
6,ACTCCGTC,0.019
7,GCCCGAAC,0.0908
8,CCTCAACC,-0.118
9,AGCTAGCC,-0.0869
10,CTCTCGGC,0.238
11,AAGTGGGA,0.034
12,GGAAGGAA,0.0699
13,AGTCCCTC,-0.142
14,ACACTTAT,-0.0747
15,AATCCTCT,-0.26
16,ACCGTACT,0.0285
17,CACTTCAG,-0.00724
18,ACCGTTGA,0.0134
19,CTGACCCC,-0.251
20,CGGCTTGC,0.296
21,AACACAGC,0.196
22,CCACTCCC,-0.173

row,Sequence,PBM E-score
1,ATCTATAC,0.0991
2,CATATCGA,-0.0748
3,CAGGCGGC,0.0205
4,GGTTGGGA,-0.163
5,CTCAACAC,0.108
6,TGCCTGAA,-0.142
7,AATCTCCG,0.3
8,AGGAATAG,-0.00383
9,CTCGGCCC,0.195
10,CTCCGATC,0.0345
11,ACTCACAG,0.0258
12,CATTTCAA,0.0826
13,GAGGCATA,0.0709
14,GCTGGAAA,0.133
15,AAAACTTC,0.182
16,GGGATGAA,-0.0783
17,AGTGCTTC,-0.0265
18,ACTACTGA,0.00278
19,GAAGGTGA,0.0602
20,AGCATTAC,-0.0712
21,ATAAACCA,0.0403
22,ATCGCCTC,-0.0449

row,Sequence,PBM E-score
1,ACTGCCGG,0.282
2,AAAGTATC,0.259
3,AGTAACAT,0.0114
4,ATGGACGC,-0.0943
5,AGACGTAG,-0.201
6,AGGGCACA,-0.0182
7,GATCCTCA,0.0807
8,AGCATGAT,-0.014
9,CAGTCTCA,-0.0421
10,ATGCCAGC,-0.25
11,GGGATCCC,0.129
12,AGCTGACC,-0.0787
13,CGCGAACG,0.139
14,CGGCCTCC,0.00767
15,GAATAGGC,0.0411
16,AAACGATC,0.161
17,ACCTACGC,-0.021
18,AAGGCCGA,0.338
19,TCTCCGAA,0.325
20,AACATACC,0.0156
21,AGATTGAA,0.115
22,ACAGGATA,0.0342

# Reformatted: results already given.
row	Sequence	PBM E-score
22	ATCGCCTC	-0.0449
1	ACTGCCGG	0.282
2	AAAGTATC	0.259
3	AGTAACAT	0.0114
4	ATGGACGC	-0.0943
5	AGACGTAG	-0.201
6	AGGGCACA	-0.0182
7	GATCCTCA	0.0807
8	AGCATGAT	-0.014
9	CAGTCTCA	-0.0421
10	ATGCCAGC	-0.25
11	GGGATCCC	0.129
12	AGCTGACC	-0.0787
13	CGCGAACG	0.139
14	CGGCCTCC	0.00767
15	GAATAGGC	0.0411
16	AAACGATC	0.161
17	ACCTACGC	-0.021
18	AAGGCCGA	0.338
19	TCTCCGAA	0.325
20	AACATACC	0.0156
21	AGATTGAA	0.115
22	ACAGGATA	0.0342

# The results go on.

row,Sequence,PBM E-score
1,TCATACCA,0.0165
2,GCGGTAAA,0.281
3,CCCGCCCG,0.279
4,ACCTCCCC,-0.233
5,ATACCTCC,-0.249
6,ACGCTCCA,-0.0667
7,GCGACAAA,-0.00165
8,ACACTGAA,0.239
9,ATCTCAAA,0.117
10,GAACTGCA,0.0542
11,GATATCAA,0.176
12,CAAGACTA,-0.13
13,CATGGGAG,-0.126
14,TGTGGCAA,0.119
15,GACTCCAA,-0.214
16,CGCGGTAG,0.124
17,GCTACAGA,-0.185
18,CCTGACCA,-0.0185
19,CAGACTTA,-0.16
20,GCTCGTTA,-0.0877
